Test results taken from publication PMC12332157 (EJNMMI Research, 2025).
Starred links: 1 amine or outer side, 2 acyl side, 3 side chain; linkers in the order of their positions; H or OH if unused. Non-standard residues stand in square brackets, D forms with d. *: point of attachment. NOTA = O=C(O)CN1CCN(CC(=O)O)CCN(CC(=O)*)CC1; Sta = CC(C)C[C@H](N)[C@@H](O)CC(=O)O; X2 = O=C(COc1cccc(CN[*:1])c1)[*:2]; X1 = O=C(Cc1ccccc1CCN[*:1])[*:2]; X3 = O=C(COc1ccccc1CN[*:1])[*:2]

assay: general procedure: Fmoc solid-phase peptide synthesis; Fmoc Rink Amide MBHA resin (loading 0.69 mmol/g); PyBOP/DIPEA; conditions: whole synthesis, scale 15.5 µmol, TFA salt

Row | Substance | isolated mass | isolated yield
1 | Ac-K(NOTA)[X2][dF]QWAVGH[Sta]L-NH2 (SMILES CC(=O)N[C@@H](CCCCNC(=O)CN1CCN(CC(=O)O)CCN(CC(=O)O)CC1)C(=O)NCc1cccc(OCC(=O)N[C@H](Cc2ccccc2)C(=O)N[C@@H](CCC(N)=O)C(=O)N[C@@H](Cc2c[nH]c3ccccc23)C(=O)N[C@@H](C)C(=O)N[C@H](C(=O)NCC(=O)N[C@@H](Cc2c[nH]cn2)C(=O)N[C@@H](CC(C)C)[C@@H](O)CC(=O)N[C@@H](CC(C)C)C(N)=O)C(C)C)c1) | 4.3 mg | 15%
2 | Ac-K(NOTA)[X1][dF]QWAVGH[Sta]L-NH2 (SMILES CC(=O)N[C@@H](CCCCNC(=O)CN1CCN(CC(=O)O)CCN(CC(=O)O)CC1)C(=O)NCCc1ccccc1CC(=O)N[C@H](Cc1ccccc1)C(=O)N[C@@H](CCC(N)=O)C(=O)N[C@@H](Cc1c[nH]c2ccccc12)C(=O)N[C@@H](C)C(=O)N[C@H](C(=O)NCC(=O)N[C@@H](Cc1c[nH]cn1)C(=O)N[C@@H](CC(C)C)[C@@H](O)CC(=O)N[C@@H](CC(C)C)C(N)=O)C(C)C) | 3.6 mg | 12%
3 | Ac-K(NOTA)[X3][dF]QWAVGH[Sta]L-NH2 (SMILES CC(=O)N[C@@H](CCCCNC(=O)CN1CCN(CC(=O)O)CCN(CC(=O)O)CC1)C(=O)NCc1ccccc1OCC(=O)N[C@H](Cc1ccccc1)C(=O)N[C@@H](CCC(N)=O)C(=O)N[C@@H](Cc1c[nH]c2ccccc12)C(=O)N[C@@H](C)C(=O)N[C@H](C(=O)NCC(=O)N[C@@H](Cc1c[nH]cn1)C(=O)N[C@@H](CC(C)C)[C@@H](O)CC(=O)N[C@@H](CC(C)C)C(N)=O)C(C)C) | 3.9 mg | 14%
